Results deposited as PubChem BioAssay AID1259405 (NCATS, 2018)

Aim: 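Silenced genes that increase secreted GFP made by CHO cells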 (primary screen)
Cells: Chinese hamster CHO-K1 ovary cells with stable secreted eGFP expression
Reagents: single siRNA against mouse genes, 0.8 pmol siRNA per well (2 µl of 400 nM stock)
Timing: 3 days
Measured: 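Percent of the per-plate non-targeting control median for intracellular GFP per well by laser scanning cytometry and for cell viability by ATP luminescence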
Scale: GFP, % of control: higher = more GFP per well, higher productivity
Hit rule: 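Called active when intracellular GFP, relative to negative control, is at or above 120%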
Shown is one part, drawn at random, of about 50,000 deposited reagents. In the full data, about 4,000 (8%) got an active call. 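Mouse siRNA library applied to hamster cells; one well for each siRNA.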 Unmarked entries are inactive. The numbers tell different reagents against one gene apart. Not all columns of the deposit are shown. Reagent sequences are not shown.

GFP, % of control, by gene symbol and reagent
Rpgrip1 (retinitis pigmentosa GTPase regulator interacting protein 1): #1 55.2; #2 60.1; #3 56.4
Ttc6 (tetratricopeptide repeat domain 6): #1 23.2; #2 99.3; #3 100
Cntnap4 (contactin associated protein-like 4): #1 106; #2 131 (active); #3 127 (active)
Cyp3a44 (cytochrome P450, family 3, subfamily a, polypeptide 44): #1 11.5; #2 66.1; #3 64.8
Or2t29 (olfactory receptor family 2 subfamily T member 29): #1 94.9; #2 97.5; #3 52.8
Bhlhe40 (basic helix-loop-helix family, member e40): #1 58.9; #2 99.1
Slc5a5: #1 76.4; #2 45.3; #3 117
Dmd (dystrophin, muscular dystrophy): #1 45.7; #2 72.5; #3 114
Cox5a (cytochrome c oxidase subunit 5A): #1 61.6; #2 52.1
Ptma (prothymosin alpha): #1 87.6; #2 44.9; #3 73.5
Mdp1 (magnesium-dependent phosphatase 1): #1 56.3; #2 89.8; #3 95.8
Hoxa13 (homeobox A13): #1 70; #2 52.4; #3 135 (active)

As entered above.
Entry for Ttc6 (tetratricopeptide repeat domain 6) #1 under “GFP, % of control”: 23.2
For “GFP, % of control”, Slc5a5 #3 has 117
Entry for Ttc6 (tetratricopeptide repeat domain 6) #2 in “GFP, % of control”: 99.3
Dmd (dystrophin, muscular dystrophy) #1, GFP, % of control → 45.7
For “GFP, % of control”, Cyp3a44 (cytochrome P450, family 3, subfamily a, polypeptide 44) #1 is entered as 11.5
